# Data as given in patent publication US8999293B2, “Animal model of anxiety and depression” (University of Mississippi, priority 2005, dated 2015).
# At least one compound was matched to its structure with a doubt left.
# Columns and labels:
# [1] = tested on: isolated cockerels (Gallus gallus, strain W-36); type: in vivo; details: isolated chicks vs vehicle-isolated, chlordiazepoxide 8 mg/kg
# Text: Subjects. Cockerels (Gallus gallus, strain W-36; Cal-Maine Foods, Mendenhall, Miss., USA) were obtained 1 day posthatch and housed in stainless steel cages (34×57×40 cm) at a population density of 12 chicks per cage. Food (Purina Start and Grow, St. Louis, Mo., USA) and water were available ad libitum through a 1-quart gravity-fed feeders and waterers.
# Apparatus. […] The units were illuminated using 25-W light bulbs and ventilated by an 8-cmdiameter rotary fan. Miniature video cameras mounted at floor level in the corner of the enclosures allowed for animal observation. Microphones that mounted at the ceiling of the Plexiglas chamber were connected to digital sound-activating relays, which activated electromechanical counters. A white noise generator provided room masking noise.
# Procedure. Tests were conducted at either Day 4, 5, or 6 posthatch. Groups formed a single factorial design with a hanging control that included two vehicle-control groups in which chicks were tested in either an isolated or social condition, and two drug groups under the isolation condition. The vehicle was 0.9% physiological saline and the drug probes were chlordiazepoxide (8 mg/kg) and imipramine (15 mg/kg). Sample sizes were n=12 per cell. […]
# Statistics. Data were analyzed using one- and two-way repeated measures analysis of variance (ANOVA) and one-way simple effects ANOVA. […]
# [2] = tested on: domestic fowl chicks; details: Feltenstein et al. 2004; cited from earlier work
# [3] = tested on: isolated cockerels (Gallus gallus; W36); assay: Chick anxiety-depression model, drug probe studies, 120 min isolation (Example 3); details: IM fifteen minutes prior to testing, vs vehicle/isolated
# Description: Subjects and Housing Procedures. Cockerels (Gallus gallus; W36; Cal-Maine Foods, Inc.; Mendenhall, Miss.) were received one-day posthatch and housed in 34×57×40 cm stainless steel cages with 12-13 chicks per cage. Food (Purina Start and Grow, St. Louis, Mo.) and water were available ad libitum through one quart gravity-fed feeders (Murray MacMurray; Model 4BGFJ) and waterers (Murray MacMurray; Model 4YQW0). Room temperature was maintained at 29±1° C. and overhead illumination was maintained on a 12 hr light-dark cycle. Daily maintenance, which was conducted during the first three hr of the light cycle, involved refilling the waterer, refilling the feeder, and replacement of tray liners.
# Apparatus. […] Distress vocalizations (DVocs) were recorded by microphones (Lafayette Instruments Model 3-675-001) mounted in the ceilings of the Plexiglas chambers and connected to digital sound-activating relays (Lafayette Instruments Model 63040A; settings: 75% sensitivity and 0.10 s delay) that triggered electromechanical counters (Lafayette Instruments Model 58004). […]
# Statistical Analyses. […] Following this conversion, the DVoc rates from the anxiety-like phase and depression-like phase were analyzed with a one-way ANOVA with Fisher's LSD post hoc analysis. Plasma IL-6 concentration data were analyzed using one-way ANOVA with Fisher's LSD post hoc analysis and independent sample t-tests.
smiles,measurement,setting,value
CNC1=Nc2ccc(Cl)cc2C(c2ccccc2)=[N+]([O-])C1 [chlordiazepoxide],distress vocalizations (DVocs) at the first five minute time block,"[1]; IP 15 minute before tests, imipramine 15 mg/kg",attenuated DVocs
same,DVoc rates at the 20 minute block and beyond,[1]; imipramine 15 mg/kg IP,did not generally alter DVoc rates
same,detection of anxiolytic activity on separation-induced distress vocalizations,[2],successful detection
same,isolation-induced DVoc rate during the anxiety-like phase (first five min time block),[3]; attenuation = anxiolytic effect,significant attenuation of the separation-induced DVoc rate at the 10 mg/kg and 15 mg/kg doses
same,isolation-induced DVoc rate during the depression-like phase (30-120 min),[3]; increase = antidepressant effect,significant attenuation of the DVoc rate in the 10 mg/kg and 15 mg/kg doses
